# Measurements reported in patent US20150024955A1, “Methods of Identifying Modulators of Dephosphorylation of Histone Deacetylase” (THE J. DAVID GLADSTONE INSTITUTES, priority 2006, published 2015).
# Sequences of proteins named here, by UniProt entry; tags and fusion partners are left off. A change or cut given only in a name is not applied to a line headed by its entry.
# UniProt Q8C2B3: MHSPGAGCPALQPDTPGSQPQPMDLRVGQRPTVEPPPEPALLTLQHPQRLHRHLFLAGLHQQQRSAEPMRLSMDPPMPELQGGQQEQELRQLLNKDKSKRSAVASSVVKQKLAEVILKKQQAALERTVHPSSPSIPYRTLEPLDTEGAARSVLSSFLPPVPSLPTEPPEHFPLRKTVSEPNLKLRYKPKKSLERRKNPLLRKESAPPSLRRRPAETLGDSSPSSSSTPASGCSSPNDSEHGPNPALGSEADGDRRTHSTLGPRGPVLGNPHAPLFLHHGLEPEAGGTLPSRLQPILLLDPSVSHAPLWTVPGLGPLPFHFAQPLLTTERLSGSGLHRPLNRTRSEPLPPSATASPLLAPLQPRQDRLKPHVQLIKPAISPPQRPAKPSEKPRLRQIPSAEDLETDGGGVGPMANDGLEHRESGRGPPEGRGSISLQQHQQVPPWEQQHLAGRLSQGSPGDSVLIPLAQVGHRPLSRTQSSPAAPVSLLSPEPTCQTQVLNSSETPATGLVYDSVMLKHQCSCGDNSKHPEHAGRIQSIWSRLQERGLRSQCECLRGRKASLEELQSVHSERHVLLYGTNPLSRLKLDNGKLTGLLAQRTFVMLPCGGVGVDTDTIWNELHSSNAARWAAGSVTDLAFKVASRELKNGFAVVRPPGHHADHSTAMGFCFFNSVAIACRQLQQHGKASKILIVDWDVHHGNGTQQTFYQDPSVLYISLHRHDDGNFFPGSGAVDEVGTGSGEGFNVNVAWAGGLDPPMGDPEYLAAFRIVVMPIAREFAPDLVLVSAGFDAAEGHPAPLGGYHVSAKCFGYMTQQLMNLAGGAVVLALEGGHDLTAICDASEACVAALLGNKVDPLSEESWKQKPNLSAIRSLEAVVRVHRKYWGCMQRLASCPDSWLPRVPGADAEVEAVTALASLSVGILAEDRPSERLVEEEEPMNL
# UniProt P62259: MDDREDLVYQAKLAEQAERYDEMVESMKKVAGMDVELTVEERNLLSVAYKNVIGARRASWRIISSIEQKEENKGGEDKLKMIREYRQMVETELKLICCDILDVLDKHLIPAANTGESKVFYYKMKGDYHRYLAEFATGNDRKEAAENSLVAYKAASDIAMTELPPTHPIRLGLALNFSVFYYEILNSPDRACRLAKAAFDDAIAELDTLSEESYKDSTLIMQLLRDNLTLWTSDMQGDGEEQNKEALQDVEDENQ
# UniProt P62141: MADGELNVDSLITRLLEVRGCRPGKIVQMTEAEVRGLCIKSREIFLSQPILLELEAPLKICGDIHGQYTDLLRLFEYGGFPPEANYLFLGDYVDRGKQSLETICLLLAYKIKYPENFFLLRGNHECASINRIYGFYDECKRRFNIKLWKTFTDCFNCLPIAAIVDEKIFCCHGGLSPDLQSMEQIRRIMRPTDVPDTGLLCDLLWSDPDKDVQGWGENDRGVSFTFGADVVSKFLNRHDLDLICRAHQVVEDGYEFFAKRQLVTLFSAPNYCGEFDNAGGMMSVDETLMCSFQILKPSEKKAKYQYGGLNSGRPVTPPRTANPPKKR
# These are yes or no findings as the source states them, for the method shown. For some of these results: Binding seen in cells or lysates may run through a third protein. Some results given as binding are weak or reduced against the parent protein; the word gives no strength. For some of these results: Where a sequence is shown, tags or fusion partners need not be part of it.
# Experiments:
# [1] = molecular target: endogenous HDAC7 of mouse cells (primary thymocytes; DO11.10-Empty cells) (mouse) (UniProt Q8C2B3); assay: immunoprecipitation with α-14-3-3ε from mouse primary thymocyte lysate, anti-HDAC7 Western blot
# [2] = molecular target: T1, FLAG-tagged human HDAC7 (human) (UniProt Q8WUI4); assay: co-immunoprecipitation, Western blot (DO11.10 T cell hybridoma)
# T1 sequence (looked up): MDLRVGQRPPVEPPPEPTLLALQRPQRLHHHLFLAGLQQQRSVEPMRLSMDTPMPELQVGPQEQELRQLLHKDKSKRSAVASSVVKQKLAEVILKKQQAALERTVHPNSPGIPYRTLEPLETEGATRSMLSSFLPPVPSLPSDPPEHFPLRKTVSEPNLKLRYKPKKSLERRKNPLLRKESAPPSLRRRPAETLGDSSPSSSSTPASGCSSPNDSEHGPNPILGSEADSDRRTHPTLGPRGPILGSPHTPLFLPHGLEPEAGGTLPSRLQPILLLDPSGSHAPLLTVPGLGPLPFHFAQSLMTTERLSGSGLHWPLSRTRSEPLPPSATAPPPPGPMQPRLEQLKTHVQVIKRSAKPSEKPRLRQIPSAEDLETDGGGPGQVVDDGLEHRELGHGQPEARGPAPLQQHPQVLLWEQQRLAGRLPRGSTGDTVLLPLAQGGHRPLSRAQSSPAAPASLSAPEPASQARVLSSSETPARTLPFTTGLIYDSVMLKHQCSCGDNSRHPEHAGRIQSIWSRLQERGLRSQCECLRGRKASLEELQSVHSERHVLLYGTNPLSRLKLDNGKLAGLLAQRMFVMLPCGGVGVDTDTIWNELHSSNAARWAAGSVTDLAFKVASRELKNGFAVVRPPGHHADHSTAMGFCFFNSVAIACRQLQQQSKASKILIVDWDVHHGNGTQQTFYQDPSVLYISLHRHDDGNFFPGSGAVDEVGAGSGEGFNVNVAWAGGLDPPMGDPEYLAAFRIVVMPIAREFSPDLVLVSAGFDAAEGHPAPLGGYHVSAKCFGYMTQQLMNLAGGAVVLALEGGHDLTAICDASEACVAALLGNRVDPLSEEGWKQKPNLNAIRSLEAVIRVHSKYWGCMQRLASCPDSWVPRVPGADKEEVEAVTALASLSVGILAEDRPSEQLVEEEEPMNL
# [3] = molecular target: endogenous HDAC7 of mouse cells (primary thymocytes; DO11.10-Empty cells) (mouse) (UniProt Q8C2B3); assay: co-immunoprecipitation from mouse primary thymocyte lysate, anti-HDAC7 Western blot
# [4] = molecular target: endogenous HDAC7 of mouse cells (primary thymocytes; DO11.10-Empty cells) (mouse) (UniProt Q8C2B3); assay: co-immunoprecipitation, Western blot (mouse primary thymocytes)
binding [1],binding [2],binding [3],binding [4],Substance
binds,,,,14-3-3 protein epsilon (from UniProt P62259 1-255)
,binds,binds,binds,myosin phosphatase (complex of PP1β and MYPT1) (from UniProt P62141 2-327; Q9DBR7 1-1029) (enzyme)
